This passage reports binding signal results from PMC7819943, “Rice protein-binding microarrays: a tool to detect cis-acting elements near promoter regions in rice”.

Protein sequences, listed by entry. Tags and fused reporters are not part of them.
UniProt Q0JBA9, entry or part of it: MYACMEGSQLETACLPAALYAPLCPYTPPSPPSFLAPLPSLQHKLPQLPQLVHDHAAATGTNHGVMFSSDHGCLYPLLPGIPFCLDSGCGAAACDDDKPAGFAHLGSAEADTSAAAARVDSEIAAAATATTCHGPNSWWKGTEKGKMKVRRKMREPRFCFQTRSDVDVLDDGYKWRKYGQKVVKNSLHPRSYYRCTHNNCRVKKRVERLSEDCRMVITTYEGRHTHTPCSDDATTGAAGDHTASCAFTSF

The list shows a part of the results.

For this assay, the target named is OsWRKY34 (Oryza sativa, UniProt Q0JBA9 1-250). Briefly: protein-binding microarray (RPBM); PBS, 2% BSA, 51.3 ng/ul salmon testes DNA, 50 uM zinc acetate, 200 nM TF, 25 C, 1 h; high values mean tight binding. The settings on record: protein: recombinant; tags: N-terminal polyhistidine and DsRed monomer fusion (pET32a); label: CyDye5-dUTP incorporated in the synthesized complementary strand; 3' TTTTT single-stranded linker to array surface; dsDNA, one strand shown. An outline of the steps: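 An Axon 4000B scanner gave the binding signal as per-feature fluorescence intensity in arbitrary units. This followed washing of a custom Agilent array that had been incubated for 1 h at 25 °C with 200 nM protein in PBS, 2% BSA, salmon testes DNA and 50 µM zinc acetate. The proteins were transcription factors fused at the N-terminus to polyhistidine and DsRed, expressed in E. coli BL21-CodonPlus and purified on Ni–NTA.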
Turning to “ATTTTGGGACAGAGGTAGCAGTGAACTACACGTACCTTGTCGGAGTCACCTAGTGCAG”, the binding signal is 21500 fluorescence intensity (a.u.).

With “TCTATGGTAGTCCAAAGAGTCCACAGCCCACACTCACTCTCGGAGTCACCTAGTGCAG”, the binding signal is 8160 fluorescence intensity (a.u.).

In the case of “TGGGCTAGAGCTAGGGTTTTGTTTGGTGGCTAGGGTTCTTCGGAGTCACCTAGTGCAG”, the binding signal is 8410 fluorescence intensity (a.u.).

In the case of “ACTTTCGTCTGTTTGCTAGTGTGGGTATTGATTTGCTCCACGGAGTCACCTAGTGCAG”, the binding signal is 12000 fluorescence intensity (a.u.).

With “GCTGTTTATTTATATTTATTTATTGTGTATTTGATATCCACGGAGTCACCTAGTGCAG”, the binding signal is 11200 fluorescence intensity (a.u.).

For “GATCTCTATGCATTTTTCACTTGTGTCCACACAAATACTTCGGAGTCACCTAGTGCAG”, the binding signal was 8730 fluorescence intensity (a.u.).

As for “GGGGTGAGTTGAGAACATAAGACAGATGCTTTCCGAAAGACGGAGTCACCTAGTGCAG”, the binding signal is 8730 fluorescence intensity (a.u.).

With “TAATCACTCATACACGCGTCTGTGTCATGGCTGATGTCAGCGGAGTCACCTAGTGCAG”, the binding signal was 8270 fluorescence intensity (a.u.).

Take “CTCCGCTGGACCAACTACCTCCGCCCCGACATCCGCCGCGCGGAGTCACCTAGTGCAG”: the binding signal is 10000 fluorescence intensity (a.u.).

Regarding “CCATTTCGCATCTCTCTCAGCCTCACCGTCGTCGCCTCCCCGGAGTCACCTAGTGCAG”, the binding signal was 8840 fluorescence intensity (a.u.).

As to “TCTATGTAGGGTTTATCAATACTCGGCATATGATTCATACCGGAGTCACCTAGTGCAG”, the binding signal is 8710 fluorescence intensity (a.u.).

As for “GCGGCGGGTGCGGCATGTGGAACGGGTGGGCGTCGGGCGCCGGAGTCACCTAGTGCAG”, the binding signal was 8110 fluorescence intensity (a.u.).

As to “TTTACCGATATTTCTAATATCATTTCCATTTTCGGCTTATCGGAGTCACCTAGTGCAG”, the binding signal was 10000 fluorescence intensity (a.u.).

“TCCGGCGCCTTACTGGTCATCACCAACTCACTGCTCCTCTCGGAGTCACCTAGTGCAG”: the binding signal is 8670 fluorescence intensity (a.u.).

Regarding “ATCCTTTTTTTTTAGCATGATGCAGCATATGCTTGACCTTCGGAGTCACCTAGTGCAG”, the binding signal is 8130 fluorescence intensity (a.u.).

As for “AAGCATATACTGCCCTTTGCAGTTTCTTCTCAGCCGTTCTCGGAGTCACCTAGTGCAG”, the binding signal was 8280 fluorescence intensity (a.u.).

In the case of “CTGGTTCTTGATTATTATTAGGATTAGTTTGTTCCTTTGTCGGAGTCACCTAGTGCAG”, the binding signal is 8450 fluorescence intensity (a.u.).

As to “TAGTTTTTTTTATTCTACCCTCAACTATCCTTGCACATCTCGGAGTCACCTAGTGCAG”, the binding signal is 9690 fluorescence intensity (a.u.).

Consider “TTAATTCGTTTTTACCTTGACTATTTTTTCTTTCTTGTTGCGGAGTCACCTAGTGCAG”, for which the binding signal was 8340 fluorescence intensity (a.u.).

For the sequence “TATTAGTGGTATATATCCCTATCAGTCATTCTGCTTGCTTCGGAGTCACCTAGTGCAG”, the binding signal is 9260 fluorescence intensity (a.u.).

“GCCACCAAATTCCCAACCCTTTTTCTGTTCAGATTCTTGGCGGAGTCACCTAGTGCAG”: the binding signal was 8890 fluorescence intensity (a.u.).

Turning to “CTCCACCACCGCTAGATTCGCTCACATCGCCGCCATTACTCGGAGTCACCTAGTGCAG”, the binding signal was 9750 fluorescence intensity (a.u.).

In the case of “TTGCTGACAGCTAGCTACACACTGCCTTTGTTATATTACCCGGAGTCACCTAGTGCAG”, the binding signal was 8240 fluorescence intensity (a.u.).

In the case of “CGTGGTGTAAATGTACGTATATCTGCTCTTTCGCTGTACGCGGAGTCACCTAGTGCAG”, the binding signal was 8130 fluorescence intensity (a.u.).

On to “GGCCCCACGTTACCCTTTCGCGCACACGTGTCCCCTATCACGGAGTCACCTAGTGCAG”, for which the binding signal was 10200 fluorescence intensity (a.u.).

With “ACTGTCTATGTCTCAATTCATACTATTATATTCTATGCTCCGGAGTCACCTAGTGCAG”, the binding signal was 9130 fluorescence intensity (a.u.).

On to “GATTCACTATTGTGAGTTAAATCCTGTACTTTTTGCTGATCGGAGTCACCTAGTGCAG”, for which the binding signal was 8320 fluorescence intensity (a.u.).

As for “TGCACCATCCATTCCTCATCGGATGCCTTCACGCCGCCACCGGAGTCACCTAGTGCAG”, the binding signal is 8580 fluorescence intensity (a.u.).

For “ATATCTTGTTTATGCAGTTCAGCCTTTCAGGGGTTATCCTCGGAGTCACCTAGTGCAG”, the binding signal is 9060 fluorescence intensity (a.u.).

Consider “ACGTTCAATCCTCAACATGCTCACAATTTCTTCTTAAAAACGGAGTCACCTAGTGCAG”, for which the binding signal is 8510 fluorescence intensity (a.u.).

“TCTAAATTGTATTTCTATATAGACTCTGCATTTTCTTTTTCGGAGTCACCTAGTGCAG”: the binding signal is 11600 fluorescence intensity (a.u.).

As for “GGGTTGTGGAGTGTAGTTTCTATTGTGATGTCTTATTGACCGGAGTCACCTAGTGCAG”, the binding signal was 11200 fluorescence intensity (a.u.).

Consider “AACTCTCCAGTCTCCACCCACCTCACTCCACAGTCCACACCGGAGTCACCTAGTGCAG”, for which the binding signal is 9640 fluorescence intensity (a.u.).

For “CCGTCTGCTACGTTAGCTTGCCGCCCTCCGTTAGGCGGCACGGAGTCACCTAGTGCAG”, the binding signal was 9150 fluorescence intensity (a.u.).

As to “CGCCGCCCTCGACTGCCGCTCCCGTCGTCCCAACCCACCGCGGAGTCACCTAGTGCAG”, the binding signal was 8790 fluorescence intensity (a.u.).

“CTGACTGGGTGCAGCATATGCTTTTTCTAACGTTGGGCGTCGGAGTCACCTAGTGCAG”: the binding signal was 8670 fluorescence intensity (a.u.).

In the case of “CACCATCTCACACACACCACGCCACAATATTCTTTGCATCCGGAGTCACCTAGTGCAG”, the binding signal is 9620 fluorescence intensity (a.u.).

Regarding “GCCACAGCGCGCGCGACCACGTCTCGGTCTCTCACGCCGTCGGAGTCACCTAGTGCAG”, the binding signal was 8600 fluorescence intensity (a.u.).

Consider “ATGGGTATGTTTAATTTGCTGGAGTTTTAGATATTCCAGACGGAGTCACCTAGTGCAG”, for which the binding signal is 9800 fluorescence intensity (a.u.).

For “TTTTACCCCGTTTTCGCTAATTAATTCTGTATTTATGGCACGGAGTCACCTAGTGCAG”, the binding signal was 8120 fluorescence intensity (a.u.).

In the case of “TCTGATCCCACCTGTCATACACGTATTGTGTCTTGGAGTCCGGAGTCACCTAGTGCAG”, the binding signal was 10600 fluorescence intensity (a.u.).

Consider “TTCCTCGTGATTCGTGAACTATTCTGCCCATGTTTTCTATCGGAGTCACCTAGTGCAG”, for which the binding signal was 9440 fluorescence intensity (a.u.).

As to “TCTCCATTCTCATTCCCAATCCATCTACATTTCCTAAGTACGGAGTCACCTAGTGCAG”, the binding signal was 9160 fluorescence intensity (a.u.).

Consider “ATTTAGCTACACTATGCAGTCTGGCCCATTTTCTTTCGCCCGGAGTCACCTAGTGCAG”, for which the binding signal is 11200 fluorescence intensity (a.u.).

As for “CGGGTGGGTCGTAAAGGAGTACAGCGACGGTGTTTGACAGCGGAGTCACCTAGTGCAG”, the binding signal was 8320 fluorescence intensity (a.u.).

Regarding “AGTTTCTTTTTTTTGGTCCTTTTTAGCGTGTTGTTAATCTCGGAGTCACCTAGTGCAG”, the binding signal was 13100 fluorescence intensity (a.u.).

On to “TGGGGTGGTGTGTTGATGCGGCGGGATTCGAGCCCTGGCCCGGAGTCACCTAGTGCAG”, for which the binding signal was 8560 fluorescence intensity (a.u.).

With “GCCCGTAGCATACCACCCCATCATCGCTACCGCCGATTTCCGGAGTCACCTAGTGCAG”, the binding signal was 9610 fluorescence intensity (a.u.).

On to “GCCGCCTCCTAGTGCTTCCTCTATCGCCCATCATTTCCGTCGGAGTCACCTAGTGCAG”, for which the binding signal is 8400 fluorescence intensity (a.u.).

“GATCCGTTTTATGTGTTTGGGGAGAGAGTTTCCCAACTTCCGGAGTCACCTAGTGCAG”: the binding signal was 8880 fluorescence intensity (a.u.).

In the case of “ACCATCTTATTTAACGTAAAATATTTAATTTTCATTTTTACGGAGTCACCTAGTGCAG”, the binding signal is 8480 fluorescence intensity (a.u.).

Turning to “CATTCTGTACATCCAGTGTCTCTCAGCATATCCTTCAGAACGGAGTCACCTAGTGCAG”, the binding signal is 8420 fluorescence intensity (a.u.).

For the sequence “AATCACGTGATTATTTTAGCAACCTCATTTTTTTTCTTTTCGGAGTCACCTAGTGCAG”, the binding signal is 8930 fluorescence intensity (a.u.).

With “GCCTTCGATTCTGCCCCACCGCGCCCACTGCTAACTCCGACGGAGTCACCTAGTGCAG”, the binding signal was 10700 fluorescence intensity (a.u.).
